{"sequences": {"note": "The chains behind the UniProt entries cited, without tags or fusion partners.", "UniProt P04637, whole entry, looked up": "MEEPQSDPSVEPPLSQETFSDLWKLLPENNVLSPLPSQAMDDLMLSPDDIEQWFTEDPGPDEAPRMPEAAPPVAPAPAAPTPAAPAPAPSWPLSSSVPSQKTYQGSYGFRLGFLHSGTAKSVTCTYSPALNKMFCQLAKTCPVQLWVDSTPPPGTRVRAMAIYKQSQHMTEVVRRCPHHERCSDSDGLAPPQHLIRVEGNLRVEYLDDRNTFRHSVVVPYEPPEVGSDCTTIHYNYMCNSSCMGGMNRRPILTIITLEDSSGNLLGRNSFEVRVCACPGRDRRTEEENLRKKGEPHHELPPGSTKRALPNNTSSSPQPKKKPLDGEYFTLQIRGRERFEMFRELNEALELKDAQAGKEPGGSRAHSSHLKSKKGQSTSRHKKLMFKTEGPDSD"}, "source": "PubChem BioAssay (EPA / NIEHS)", "note": "Where “and” joins values, the source holds several entries; their conditions need not be identical. Identical values can stand only once. Inconclusive results, whose numbers are uncertain, are shown with a selection of clear calls. Where the call is inconclusive, the potency comes from a doubtful curve fit. Calls of active or inactive are those of the source. How the source made its calls: active means hit-call score of the fitted dose curve at least 0.9, where 1 is the maximum; inconclusive means response in the unintended direction; inactive means score below 0.9."}
{"system": "not listed separately", "assay": "TOX21_p53_BLA_p3_viability: Viability Assessment in the Tox21 HCT-116 p53 Agonism Beta-lactamase Assay, Phase 3 (AID 2283593);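 further: cells exposed to compound for 16 h before reading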", "procedure,_shortened": "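Cellular ATP was quantified by CellTiter-Glo luminescence, read after 30 min at room temperature. Beforehand, HCT116 cells (4000/well) received compound 5 h post-seeding, 217-fold diluted from DMSO, then incubated 16 h at 37C.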"}
{"smiles": "Cc1cccc(Nc2cc(Cl)nc(SCC(=O)O)n2)c1C", "AC50": "inconclusive: 11.1 µM and inconclusive: 14.5 µM and inconclusive: 12.4 µM"}
{"smiles": "CCCCCCCC/C=C\\CCCCCCCC(=O)N(C)CC(=O)O", "AC50": "active: 45.1 µM"}
{"smiles": "O=C1O[C@H]([C@@H](O)CO)C(O)=C1O", "AC50": "inconclusive: 46.1 µM and inconclusive: 23 µM and inconclusive: 50.4 µM"}
{"smiles": "COCCOCCOCCO", "AC50": "inconclusive: 80.3 µM"}
{"smiles": "CCCCOC(=O)[C@H](C)O", "AC50": "inconclusive: 46.1 µM"}
{"smiles": "Sc1nc2ccccc2s1", "AC50": "active: 0.000124 µM"}
{"smiles": "CCCCCCC(=O)O", "AC50": "inconclusive: 46.1 µM"}
{"smiles": "CC1(C)NC(=O)NC1=O", "AC50": "inconclusive: 47.4 µM", "outcome": "inactive"}
{"smiles": "CCCN(CCC)C(=O)SCC", "AC50": "inconclusive: 86.6 µM"}
{"smiles": "CCN(CC)CCOC(=O)c1ccc(N)cc1", "AC50": "inconclusive: 10.3 µM"}
{"smiles": "CC(C)CC(C)CC(O)CC(C)C", "note": "(stereo unspecified)", "AC50": "inconclusive: 88.2 µM"}
{"smiles": "CC(C)(C)c1cc(O)c(C(C)(C)C)cc1O", "outcome": "inactive"}
{"smiles": "c1ccc(OCCOc2ccccc2)cc1", "AC50": "inconclusive: 9.3 µM"}
{"smiles": "Cc1ccc2ncccc2c1", "AC50": "inconclusive: 46.1 µM and inconclusive: 85 µM"}
{"smiles": "CN(C)C", "outcome": "inactive"}
{"smiles": "Cc1ccc(C)c(O)c1", "AC50": "inconclusive: 11 µM"}
{"smiles": "CCCCOC(=O)CC(CC(=O)OCCCC)(OC(C)=O)C(=O)OCCCC", "AC50": "inconclusive: 0.109 nM and inconclusive: 46.5 µM and inconclusive: 23 µM"}
{"smiles": "CCOC(=O)c1ccc(N)cc1", "AC50": "inconclusive: 46.1 µM"}
{"smiles": "Nc1cccc(N)c1", "AC50": "inconclusive: 46.1 µM"}
{"smiles": "O=c1c(O)c(-c2ccc(O)cc2)oc2cc(O)cc(O)c12", "AC50": "inconclusive: 30.2 µM and inconclusive: 45.9 µM"}
{"smiles": "CCOC(=O)C1CC(=O)C(=C(O)C2CC2)C(=O)C1", "note": "(stereo unspecified)", "AC50": "inconclusive: 46.1 µM"}
{"smiles": "OC[C@@H](O)[C@@H](O)[C@H](O)[C@@H](O)CO", "AC50": "inconclusive: 0.0376 µM", "outcome": "inactive"}
{"smiles": "COc1ccc(C)cc1N", "AC50": "inconclusive: 46.1 µM and inconclusive: 44.8 µM"}
{"target": "Cellular tumor antigen p53 (Homo sapiens) (UniProt P04637)", "assay": "TOX21_p53_BLA_p3_ratio: Tox21 HCT-116 p53 Agonism Beta-lactamase Assay, Ratio, Phase 3 (AID 2283596)", "procedure,_shortened": "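HCT116 p53-bla cells (4000/well) given compound in DMSO (217-fold dilution) after 5 h, incubated 16 h at 37C. CCF4-AM substrate 2 h at room temperature; 460/530 nm emission ratio, gain fitted against DMSO.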"}
{"smiles": "Cc1cccc(Nc2cc(Cl)nc(SCC(=O)O)n2)c1C", "AC50": "inconclusive: 63.8 µM and inconclusive: 46.1 µM", "outcome": "inactive"}
{"smiles": "O=C(O)CC(C(=O)O)S(=O)(=O)O", "note": "(stereo unspecified)", "AC50": "inconclusive: 73.3 µM"}
{"smiles": "CCCCCCCC/C=C\\CCCCCCCC(=O)N(C)CC(=O)O", "AC50": "active: 81.1 µM"}
{"smiles": "CCCCC(CC)COC(=O)/C=C\\C(=O)OCC(CC)CCCC", "note": "(stereo unspecified)", "AC50": "inconclusive: 46.1 µM and inconclusive: 33.8 µM"}
{"smiles": "CC(C)(C)c1cc(O)c(C(C)(C)C)cc1O", "AC50": "active: 71.6 µM"}
{"smiles": "CN(C)C", "AC50": "inconclusive: 46.1 µM and inconclusive: 46.6 µM"}
{"smiles": "Cc1ccc(C)c(O)c1", "AC50": "inconclusive: 45.1 µM", "outcome": "inactive"}
{"smiles": "CCc1nn(C2CCCCC2)c2cc(C3(C#N)CCC(C(=O)O)CC3)ccc12", "note": "(stereo unspecified)", "AC50": "active: 73.5 µM"}
{"smiles": "CCCCOC(=O)CC(CC(=O)OCCCC)(OC(C)=O)C(=O)OCCCC", "AC50": "inconclusive: 30.3 µM", "outcome": "inactive"}
{"smiles": "Nc1cccc(N)c1", "outcome": "inactive"}
{"smiles": "OC[C@@H](O)[C@@H](O)[C@H](O)[C@@H](O)CO", "AC50": "inconclusive: 46.6 µM"}
{"smiles": "COc1ccc(C)cc1N", "outcome": "inactive"}
{"smiles": "CCCCCOC(=O)CCC", "AC50": "inconclusive: 46.1 µM"}
